Test results from patent publication US8536343B2, “Arylamidine derivative, salt thereof and antifungal agent containing those” (Toyama Chemical Co., Ltd., priority 2005, dated 2013).
Some results were stated once for a whole list of compounds, not compound by compound.

These compounds were tested on Candida albicans TIMM 1623 (assay: Murine Candida infection model (oral administration)). Details: cyclophosphamide-compromised male mice, i.v. infection; 3 mg/kg orally once daily for 7 days; observed 14 days after infection.
Assay type: in vivo
Work on `CCCOC(=O)/N=C(\N)c1ccc(OCCCC2CCN(CCCOc3ccc(/C(N)=N/C(=O)OCCC)cc3)CC2)cc1` [Example 1, 4-{3-[4-(3-{4-[amino(propoxycarbonylimino)methyl]phenoxy}propyl)-1-piperidinyl]propoxy}-N′-(propoxycarbonyl)benzamidine] yielded a mice survived of at least 80%.
Compound `CC(C)OC(=O)/N=C(\N)c1ccc(OCCCC2CCN(CCCOc3ccc(/C(N)=N/C(=O)OC(C)C)cc3)CC2)cc1` [Example 2, 4-{3-[4-(3-{4-[amino(isopropoxycarbonylimino)methyl]phenoxy}propyl)-1-piperidinyl]propoxy}-N′-(isopropoxycarbonyl)benzamidine] has a mice survived of at least 80%.
Work on `CCCCOC(=O)/N=C(\N)c1ccc(OCCCC2CCN(CCCOc3ccc(/C(N)=N/C(=O)OCCCC)cc3)CC2)cc1` [Example 3, 4-{3-[4-(3-{4-[amino(butoxycarbonylimino)methyl]phenoxy}propyl)-1-piperidinyl]propoxy}-N′-(butoxycarbonyl)benzamidine] yielded a mice survived of at least 80%.
Compound `CC(C)COC(=O)/N=C(\N)c1ccc(OCCCC2CCN(CCCOc3ccc(/C(N)=N/C(=O)OCC(C)C)cc3)CC2)cc1` [Example 4, 4-{3-[4-(3-{4-[amino(isobutoxycarbonylimino)methyl]phenoxy}propyl)-1-piperidinyl]propoxy}-N′-(isobutoxycarbonyl)benzamidine] has a mice survived of at least 80%.
